These are yes or no findings as the source states them, for the method shown. Some results given as binding are weak or reduced against the parent protein; the word gives no strength. For some assays here: Tags and fused reporters may be left off the sequences shown. One block for each binder: values may come before it.
What was measured:
Experiment in all cases: two-hybrid; mammalian two-hybrid; bait fused to the Gal4 DNA-binding domain (BIND), prey to the VP16 transcriptional activation domain (ACT); luciferase reporter; cultured mammalian cells, 37°C; positive from 3 times the background activity (level 1), the selected set is level 2 (>=5 to <10 times) and level 3 (>=10 times)
[1] = target: PH0986, lactam utilization protein (Pyrococcus horikoshii OT3) (UniProt O58714)
[2] = target: PH1474, hypothetical protein (Pyrococcus horikoshii OT3) (UniProt O59143)
[3] = target: PH1692, transcriptional regulator (AsnC-like protein) (Pyrococcus horikoshii OT3) (UniProt O59309)
[4] = target: PH1821, Frv operon protein, endoglucanase (Pyrococcus horikoshii OT3) (UniProt O59485)
[5] = target: PH1918, hypothetical protein (Pyrococcus horikoshii OT3) (UniProt O59581)
[6] = target: PH1408, putative uridylate kinase (Pyrococcus horikoshii OT3) (UniProt O50116)
[7] = target: PHS023, regulatory protein AsnC (Pyrococcus horikoshii OT3) (UniProt O73983)
[8] = target: PH0413, glucose-1-phosphate thymidylyltransferase (Pyrococcus horikoshii OT3) (UniProt O58150)
[9] = target: PH1153, putative acetylornithine deacetylase (Pyrococcus horikoshii OT3) (UniProt O58880)
[10] = target: PH1257, hypothetical protein (Pyrococcus horikoshii OT3) (UniProt O58996)
[11] = target: PH0119, DNA repair protein (RadA/Rad51) (Pyrococcus horikoshii OT3) (UniProt O57859)
[12] = target: PHS042, small nucleoprotein (Pyrococcus horikoshii OT3) (UniProt O74016)
[13] = target: PH1904, hypothetical protein (Pyrococcus horikoshii OT3) (UniProt O59567)
[14] = target: PHS053, archaea-specific DNA-binding protein AlbA (Pyrococcus horikoshii OT3) (UniProt O74101)

B3: PH1692, transcriptional regulator (AsnC-like protein) (protein, UniProt O59309 1-148)
chain: MELDALDRKILEILLKDSRTSYREIAKDLNVAVGTIYNRIKKLEDSGVIQAFTVKLNYESIGYDLTAIIGIKAQGKKIREIERIIAKDKRVTCVYDVTGEYDIIVIAKFRNREDMNRFVKGVLSIDGVEKTNTHVVLEIVKEDFRLEP
binding [3]: binds

B5: PH1918, hypothetical protein (protein, UniProt O59581 1-162)
chain: MVRIEVIDIEKPEGVEVIIGQGNFSIFTVDDLARALLTAVPGIKFGIAMNEAKPQLTRYTGNDPELEALAAKNAVKIGAGHVFVILMKNAYPINVLNTIKNHPAVAMIYGASENPFQVIVAETELGRAVIGVVDGKAANKIETDEQKKERRELVEKIGYKID
binding [5]: binds

B6: PH1408, putative uridylate kinase (protein, UniProt O50116 1-225)
chain: MRIVFDIGGSVLVPEKPDVDFITKLGYELTKISEDHEIAIVVGGGKVAREYIEVASKFNTNETFKDYLGIQITRANAMLLIAALKERAYPQVVSDFWEAWKAIQLKKIPVMGGTHPGHTTDAVSALLAEFLSADLLVVITNVDGVYTEDPKKNPNAKKIPKMKAKDLVDIVSREAGKAGVSTVIDPLAAKIIMRSGIKTYVIGKEDALKLFDVIKGNHNGTIIEP
binding [6]: binds

B7: PHS023, regulatory protein AsnC (protein, UniProt O73983 1-75)
chain: MVTAFILMVTAAGKEREVMEKLLAMPEVKEAYVVYGEYDLIVKVETDTLKDLDQFITEKIRKMPEIQMTSTMIAI
binding [7]: binds

B10: PH1257, hypothetical protein (protein, UniProt O58996 1-227)
chain: MVGLADVAVLYSGGKDSNYALYWALKSGLRVRYLVSMVSENEESYMYHTPNVELTSLQARALGIPIIKGFTKGEKEKEVEDLKNVLEGLKVDGIVAGALASRYQKERIENVARELGLKVYTPAWEKDPYQYMLEIIKLGFKVVFVAVSAYGLNESWLGRELNYKNLEELKKLSEKYGIHIAGEGGEFETFVLDMPFFKAKIVIDDAEKFWDGLSGKFIIKRAHLEWK
binding [10]: binds

B14: PHS053, archaea-specific DNA-binding protein AlbA (protein, UniProt O74101 1-93)
chain: MTEEHVVYIGKKPVMNYVLAVITQFHEGAKEVSIKARGRAISRAVDVAEIVRNRFLKDDVDVKEIKIGTEELPTADGRTTNTSTIEIVLARKT
binding [14]: binds

More lines, now with the values ahead:

binding [1]: binds
B1: PH0986, lactam utilization protein (protein, UniProt O58714 1-255)
chain: MRVDLNSDLGESFGRYKLGLDEEVMKYITSANVACGWHAGDPLVMRKTVRLAKENDVQVGAHPGYPDLMGFGRRYMKLTPEEARNYILYQVGALYAFAKAEGLELQHVKPHGALYNAMVKEEDLARAVIEGILDFDKDLILVTLSNSRVADIAEEMGLKVAHEVFADRAYNPDGTLVPRGRPGAVIEDKEEIAERVISMVKDGGIRAINGEWVDLKVDTICVHGDNPKAVEITSYIRKVLEEEGVKIVPMKEFIR

binding [2]: binds
B2: PH1474, hypothetical protein (protein, UniProt O59143 1-267)
chain: MKVGVSIYPHFIKEGKTLPSILANVKIKDYDFVQIFPHALGLIRNGTVIESALKEVEIVLKGVGIDYIIRMPVSLNLRDSIYYSRHFKVAKAILDVAIKLGAKIIVMQSGKTGRLDLEIDAIRSLADTANKFDIKIALENTFSVKDTLYVIDNVNRDNVGFALDVAHAFLSAQGDENKLLEDVKLGIEKTILLLVHDNFGKMFPQVEPEDALAYGVGDLHLLPGEGKIPFGKILKLFDDVPILLKVKDPKVFANLPPKSELIERLRR

binding [4]: binds
B4: PH1821, Frv operon protein, endoglucanase (protein, UniProt O59485 1-354)
chain: MDLKGGESMVDWKLMQEIIEAPGVSGYEHLGIRDIVVDVLKEVADEVKVDKLGNVIAHFKGSSPRIMVAAHMDKIGVMVNHIDKDGYLHIVPIGGVLPETLVAQRIRFFTEKGERYGVVGVLPPHLRRGQEDKGSKIDWDQIVVDVGASSKEEAEEMGFRVGTVGEFAPNFTRLNEHRFATPYLDDRICLYAMIEAARQLGDHEADIYIVGSVQEEVGLRGARVASYAINPEVGIAMDVTFAKQPHDKGKIVPELGKGPVMDVGPNINPKLRAFADEVAKKYEIPLQVEPSPRPTGTDANVMQINREGVATAVLSIPIRYMHSQVELADARDVDNTIKLAKALLEELKPMDFTP

binding [8]: binds
B8: PH0413, glucose-1-phosphate thymidylyltransferase (protein, UniProt O58150 1-356)
chain: MVDTMKALILSGGYGTRLRPLTYSQQKQLIPVANKPVLFYAIEDVIEAGIHEIGIVVGPNADLVKKTVMSVDWDANIEFIYQGEPKGLAHAILVARDYLGDEDFVMYLGDNILREGIVRHKEHFEKSDYDASILLCEVPNPQQFGVAELSEDGKTIKRLVEKPKHPPSNLALVGIYFFRPIIHEAVRHIKPSWRNELEITDAIQWLIDNGYKVGWTKVTGWWKDTGKPEDLLEANRLVLDEIEKEVKVETRAKIIGRVKIEEGAQIDENSVIKGPAVIGKNAVIRNAYIGPYTSVGNNVVIEDTEVEDSIVMDDSIIVGAGRIVESIIGRGVKIIKGNSHPMGRRLIIGDNSQIVL

binding [9]: binds
B9: PH1153, putative acetylornithine deacetylase (protein, UniProt O58880 1-354)
chain: MRKMKTERAKEILVQLLKIPSPSGREDRVALYIMEFLHKLNYDVHIESDGEIIDLVVNPGAELFFEVHMDTIDPRAEPFVRGNIVYGTGASDIKGGIASILLMLEQLRKEGKDLNVGIVFVSDEEKGGRGSALFMERYRPKMAVVLEPTDLEVHIAHAGNIEAYFEVDGKEAHGACPESGINAIEQTFEMLQKLKDLEPFKAKGKYFDPHIGIQELICENPYYLIPALCKGRLEARLLPDQEVEDILDLIDPILDEYTVKYEYTEIWDGYELSEDEEIVQIAKSAMDMVGLDEFGAMRSWTDAINFTYNGTKTIVFGPGNLDISHTKQERIDVRDVVKASEFLLAVNEIFGNKS

binding [11]: binds
B11: PH0119, DNA repair protein (RadA/Rad51) (protein, UniProt O57859 1-228)
chain: MKGSKSEVQGMVLTTGVKGLDELLGGGVARRVILQVYGPFATGKTTFAMQVGLLNEGKVAYVDTEGGFSPERLAQMARSRGLDPEKALSKFIIFEPMDLNEQRRVISKLKTIVDEKFSLVVVDSLTAHYRAEGSKNYGELAKQLQVLQWLARRKNVAVIVINQVYHDSNSNSLRPIAEHTLGYRTKDILRFEKLRVGVRLAVLERHRFRPEGGIVYFKITDKGLEDSK

binding [12]: binds
B12: PHS042, small nucleoprotein (protein, UniProt O74016 1-75)
chain: MAERPLDVIHRSLDKDVLVILKKGFEFRGRLIGYDIHLNVVLADAEMVQDGEVVKKYGKIVIRGDNVLAISPTEE

binding [13]: binds
B13: PH1904, hypothetical protein (protein, UniProt O59567 1-106)
chain: MSEMSVIIEFSIVPMGEVSISKYVAEIIKLVRDRGVKYQLTPMGTILEVNSIEEGLSIIRDAHELMFKLGSKRVLTTIRIDERRDKARTMEDKVKSVMEKVESVRE

Reference: paper PMC1414084
